Source: PubChem BioAssay AID504444 (National Center for Advancing Translational Sciences (NCATS), 2011)
Hit rate of the full screen: of about 360,000 compounds, about 7,500 (2.1%) were called active. Inconclusive means that the source gave no clear call. Such entries were picked first, then a sample of the others. The call rests on the fitted dose curve; in most records, active means well fitted inhibition curve with a large enough effect; inconclusive means small, poorly fitted or top-dose-only effect, or effect the other way; inactive means flat fitted curve, though single readings scatter. A potency beside an inconclusive call is a rough fit, not a confirmed value.

Assay: Nrf2 qHTS screen for inhibitors; further: nearly all actives have a fitted effect of over 60% in size
Conditions: A549 ARE-Fluc reporter, luciferase luminescence, 18-24 h; activity change, negative = inhibition: at 46 µM (top of the series)
Method in brief: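 Two sequential reads on A549 ARE_Fluc cells exposed to compound for 18-24 h: a CellTiter-Fluor fluorescence read for viability, then a luciferase luminescence read for Nrf2/ARE activity.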
On the % scale 0 is the no-effect control and ±100 the full control effect; potency means the concentration at half of the fitted maximal effect.

Row | SMILES | Potency | activity change, negative = inhibition
1 | O=C(Cc1cccs1)NCc1cccc(C(F)(F)F)c1 | inconclusive: 9.2 µM [activator, partial curve] | –
2 | O=C(CSc1ncnc2c1cnn2-c1ccc(F)cc1)NCc1ccc2c(c1)OCO2 | – | inactive: 1.28%
3 | S=C(Nc1ccccc1)N1CCOCCOCCN(C(=S)Nc2ccccc2)CCOCCOCC1 | inconclusive: 20.6 µM [falling, partial curve] | –
4 | CCOC(=O)N1CCC(NC(=O)c2ccc3c(c2)N=C(CC)c2ccccc2S3)CC1 | inconclusive: 18.4 µM [falling, single point] | –
5 | COc1cccc(CNc2nc3ccccc3n2CCN2CCCCC2)c1 | inconclusive: 2.06 µM [falling, partial curve, poor fit] | –
6 | COc1cccc(O)c1CN1CCC(C(=O)Nc2ccc(-c3cccc(C)c3)cc2)CC1 | inconclusive: 23.1 µM [falling, partial curve] | –
7 | Cc1nnc(-c2ccccc2)nc1N(C)C | – | inactive: 14.1%
8 | CCCN1CCN(CCCNC(=O)c2ccccc2NC(=O)C2=C(C)OCCS2)CC1 | – | inactive: -7.91%
9 | CCCSC(=S)NC1CCS(=O)(=O)C1 (stereo unspecified) | inconclusive: 23.1 µM [falling, single point] | –
10 | O=C(O)c1cccc(NC(=O)c2ccccc2)c1 | inconclusive: 29.1 µM [activator, single point] | –
11 | Cc1c(NC(=S)NC(=O)c2ccc(-c3ccc(Cl)cc3)o2)cccc1C(=O)O | inconclusive: 23.1 µM [activator, partial curve] | –
12 | CCOc1cc(C=O)cc(N=Nc2cccc([N+](=O)[O-])c2)c1O | – | inactive: 3.26%
13 | CC(CS(=O)(=O)c1ccc2c(c1)NC(=O)CS2)C(=O)N1CCN(c2cccc(Cl)c2)CC1 (stereo unspecified) | inconclusive: 29.1 µM [falling, single point] | –
14 | COc1ccccc1C(=O)N1CCC(c2noc(-c3ccc(S(=O)(=O)N4CCCC4)cc3)n2)CC1 | inconclusive: 16.4 µM [falling, partial curve, poor fit] | –
15 | Cc1cc[n+](C(C)C(=O)c2ccc(-c3ccccc3)cc2)cc1 (stereo unspecified) | active: 8.2 µM | –
16 | Cn1ccnc1SCC(=O)c1ccc(Br)cc1 | inconclusive: 16.4 µM [activator, partial curve, poor fit] | –
17 | CCOC(=O)C1CCN(S(=O)(=O)c2cccc(-c3cn4cc(Cl)ccc4n3)c2)CC1 | inconclusive: 4.11 µM [activator, single point] | –
18 | O=C(NCCc1ccc(Cl)cc1)c1ccc(CS(=O)Cc2ccccc2Cl)o1 (stereo unspecified) | inconclusive: 29.1 µM [falling, single point] | –
19 | O=C(NC(Cc1ccccc1)C(=O)N1CCN(S(=O)(=O)c2ccccc2)CC1)c1ccccc1 (stereo unspecified) | inconclusive: 23.1 µM [falling, partial curve, poor fit] | –
20 | O=C(c1ccco1)N1CCN(C(=O)c2ccco2)C1=S | inconclusive: 29.1 µM [falling, single point] | –
21 | CCN(Cc1ccccc1)Cc1nnnn1Cc1ccccc1 | inconclusive: 2.59 µM [falling, partial curve, poor fit] | –
22 | COc1ccc(-c2cnnn2-c2ccc(NC(=O)/C=C/c3ccc(OC)c(OC)c3)cc2)cc1 | inconclusive: 13 µM [falling, partial curve, poor fit] | –

Row | SMILES | Potency | activity change, negative = inhibition
23 | Cc1cc(NC(=O)CSc2nc3c(cc2C#N)CCCCC3)no1 | inconclusive: 29.1 µM [activator, single point] | –
24 | Cc1ccc(NC2c3ncccc3C(=O)N2c2ccccc2C)cc1C (stereo unspecified) | – | inactive: 7.63%
25 | CC(C)(C)CN1CCN(Cc2nc(-c3ccc(F)cc3)cs2)CC1CCO (stereo unspecified) | active: 20.6 µM | –
26 | COc1cc(OC)cc(-c2nc(-c3ccccc3)no2)c1 | inconclusive: 6.51 µM [activator, full curve, poor fit] | –
27 | COc1ccc(CN(C(=O)c2nsc(Cl)c2Cl)C(C(=O)NC2CCCCC2)c2ccc(OC)cc2)cc1 (stereo unspecified) | inconclusive: 29.1 µM [falling, single point] | –
28 | CC(CCc1ccccc1)NC(=O)COC(=O)c1ccc(S(C)(=O)=O)c([N+](=O)[O-])c1 (stereo unspecified) | inconclusive: 29.1 µM [falling, single point] | –
29 | O=C(N/N=C/c1cc2c3c(c1O)CCCN3CCC2)c1ccccc1O | inconclusive: 16.4 µM [falling, partial curve] | –
30 | CCCC(C)NC(=O)COc1ccc(Sc2ccc(OCC(=O)NC(C)CCC)cc2)cc1 (stereo unspecified) | active: 3.66 µM | –
31 | O=C(CNC(=S)N(Cc1ccccc1)Cc1cccs1)NCc1ccc(F)cc1 | inconclusive: 18.4 µM [falling, single point] | –
32 | CCCc1cc(C(=O)Nc2ccccc2SC)no1 | inconclusive: 25.9 µM [activator, single point] | –
33 | Cc1noc(/C=C/c2nn(C)cc2Cl)c1[N+](=O)[O-] | inconclusive: 20.6 µM [falling, single point] | –
34 | COc1ccc(OC)c(C(C)NC=O)c1 (stereo unspecified) | – | inactive: -5.4%
35 | O=C(c1ccco1)N1CCN(c2ncnc3c2nnn3Cc2ccccc2Cl)CC1 | inconclusive: 20.6 µM [falling, partial curve] | –
36 | CC(C)(C)c1ccc(/C=C/C(=O)Nc2ncccn2)cc1 | inconclusive: 1.84 µM [activator, partial curve] | –
37 | Cc1cc2c(SCC(=O)NC3CCCCC3)ncnc2s1 | inconclusive: 2.91 µM [activator, partial curve] | –
38 | COc1cccc(-c2cn3nc(C)c(C)nc3n2)c1 | inconclusive: 2.06 µM [activator, partial curve] | –
39 | CCCOC1CCCN(C(=O)c2cc(COc3c(F)cccc3F)on2)C1 (stereo unspecified) | inconclusive: 10.3 µM [activator, partial curve] | –
40 | O=C1C(Cl)=C(Oc2ccccc2)C(=O)c2ccccc21 | inconclusive: 29.1 µM [falling, partial curve, poor fit] | –
41 | Cc1ccnc2nc(C(=O)Nc3nc(-c4ccccn4)cs3)nn12 | inconclusive: 10.3 µM [activator, partial curve, poor fit] | –
42 | CCN(CC)C(=O)c1csc(Nc2ccc(C)cc2)n1 | – | inactive: 6.43%
43 | COc1cc(NC(=O)COc2ccc(F)cc2)nc(OC)n1 | inconclusive: 25.9 µM [falling, single point] | –
44 | COn1c(-c2ccc(C)cc2)nc2ncccc21 | inconclusive: 8.2 µM [activator, partial curve] | –

Reformatted as a markdown table: entries from further up.

| Row | SMILES | Potency | activity change, negative = inhibition |
| --- | --- | --- | --- |
| 23 | Cc1cc(NC(=O)CSc2nc3c(cc2C#N)CCCCC3)no1 | inconclusive: 29.1 µM [activator, single point] | – |
| 24 | Cc1ccc(NC2c3ncccc3C(=O)N2c2ccccc2C)cc1C (stereo unspecified) | – | inactive: 7.63% |
| 26 | COc1cc(OC)cc(-c2nc(-c3ccccc3)no2)c1 | inconclusive: 6.51 µM [activator, full curve, poor fit] | – |
| 27 | COc1ccc(CN(C(=O)c2nsc(Cl)c2Cl)C(C(=O)NC2CCCCC2)c2ccc(OC)cc2)cc1 (stereo unspecified) | inconclusive: 29.1 µM [falling, single point] | – |
| 28 | CC(CCc1ccccc1)NC(=O)COC(=O)c1ccc(S(C)(=O)=O)c([N+](=O)[O-])c1 (stereo unspecified) | inconclusive: 29.1 µM [falling, single point] | – |
| 29 | O=C(N/N=C/c1cc2c3c(c1O)CCCN3CCC2)c1ccccc1O | inconclusive: 16.4 µM [falling, partial curve] | – |
| 30 | CCCC(C)NC(=O)COc1ccc(Sc2ccc(OCC(=O)NC(C)CCC)cc2)cc1 (stereo unspecified) | active: 3.66 µM | – |
| 31 | O=C(CNC(=S)N(Cc1ccccc1)Cc1cccs1)NCc1ccc(F)cc1 | inconclusive: 18.4 µM [falling, single point] | – |
| 32 | CCCc1cc(C(=O)Nc2ccccc2SC)no1 | inconclusive: 25.9 µM [activator, single point] | – |
| 33 | Cc1noc(/C=C/c2nn(C)cc2Cl)c1[N+](=O)[O-] | inconclusive: 20.6 µM [falling, single point] | – |
| 34 | COc1ccc(OC)c(C(C)NC=O)c1 (stereo unspecified) | – | inactive: -5.4% |
| 35 | O=C(c1ccco1)N1CCN(c2ncnc3c2nnn3Cc2ccccc2Cl)CC1 | inconclusive: 20.6 µM [falling, partial curve] | – |
| 36 | CC(C)(C)c1ccc(/C=C/C(=O)Nc2ncccn2)cc1 | inconclusive: 1.84 µM [activator, partial curve] | – |
| 37 | Cc1cc2c(SCC(=O)NC3CCCCC3)ncnc2s1 | inconclusive: 2.91 µM [activator, partial curve] | – |
| 38 | COc1cccc(-c2cn3nc(C)c(C)nc3n2)c1 | inconclusive: 2.06 µM [activator, partial curve] | – |
| 39 | CCCOC1CCCN(C(=O)c2cc(COc3c(F)cccc3F)on2)C1 (stereo unspecified) | inconclusive: 10.3 µM [activator, partial curve] | – |
| 40 | O=C1C(Cl)=C(Oc2ccccc2)C(=O)c2ccccc21 | inconclusive: 29.1 µM [falling, partial curve, poor fit] | – |
| 41 | Cc1ccnc2nc(C(=O)Nc3nc(-c4ccccn4)cs3)nn12 | inconclusive: 10.3 µM [activator, partial curve, poor fit] | – |
| 43 | COc1cc(NC(=O)COc2ccc(F)cc2)nc(OC)n1 | inconclusive: 25.9 µM [falling, single point] | – |

Further compounds

Row | SMILES | Potency | activity change, negative = inhibition
45 | O/N=C/c1cc(Br)cc(Br)c1OCc1ccccc1 | inconclusive: 16.4 µM [falling, partial curve, poor fit] | –
46 | CC(=O)N1CCc2cc(S(=O)(=O)CCC(=O)N3CCc4ccccc4C3)ccc21 | inconclusive: 29.1 µM [falling, single point] | –
47 | COc1cccc(/C=N/Nc2ccc(C(=O)O)cc2)c1O | inconclusive: 23.1 µM [activator, partial curve, poor fit] | –
48 | Cc1cccc(/C=N/NC(=O)CC(=O)NCCc2ccccc2)c1 | inconclusive: 20.6 µM [falling, single point] | –
49 | CC(=O)OCCn1c(=O)c2cc3c(=O)n(CCOC(C)=O)c(=O)c3cc2c1=O | inconclusive: 3.66 µM [activator, partial curve, poor fit] | –
50 | O=C(NC1CCCCCC1)c1ccc(CN2CCOCC2)cc1 | inconclusive: 18.4 µM [activator, partial curve, poor fit] | –
51 | Cc1cc(NC(=O)COC(=O)c2ccccc2S(=O)(=O)N(C)c2ccccc2)no1 | inconclusive: 11.6 µM [activator, partial curve] | –
52 | COc1ccccc1N1C(=O)N(C(C)=O)C2C1Nc1ccccc1N2C (stereo unspecified) | inconclusive: 16.4 µM [falling, single point] | –
53 | CCCCCc1ccc(-c2cn(CCCOCc3ccccc3)nn2)cc1 | inconclusive: 14.6 µM [falling, single point] | –
54 | O=C(CSc1nc2ccccc2[nH]1)N1CCCCC1 | inconclusive: 18.4 µM [activator, partial curve, poor fit] | –
55 | CCN(CC)S(=O)(=O)c1cccc(C(=O)N[C@H](C(=O)Nc2nc3ccc(F)cc3s2)C(C)C)c1 | inconclusive: 29.1 µM [falling, single point] | –
56 | O=C(NC1CC1)c1cc2c(s1)-c1ccccc1OC2 | inconclusive: 29.1 µM [falling, single point] | –
57 | Cc1c2ccccc2nc2c(F)c(NCCO)c(F)c(F)c12 | – | inactive: 8.54%
58 | COc1ccc(C(=O)c2ccc(Br)cc2)c(OC)c1OC | inconclusive: 14.6 µM [activator, partial curve] | –
59 | Cc1occc1C(=O)N1CCCC(N2CCN(c3cccc(C(F)(F)F)c3)CC2)C1 (stereo unspecified) | inconclusive: 16.4 µM [falling, single point] | –
60 | CC(C)(C)NC(=O)C(=O)NNC(=O)c1ccccc1 | inconclusive: 20.6 µM [activator, single point] | –
61 | CC(C)(C)OC(=O)N1CC2Cc3[nH]c(=O)ccc3C(C2)C1 (stereo unspecified) | inconclusive: 0.259 µM [falling, full curve, poor fit] | –
62 | O=C(Nc1ccc2nc(SCC(=O)N3CCCC3)sc2c1)c1cccc(Br)c1 | active: 18.4 µM | –
63 | Cc1nc(Nc2ccccc2)c2oc3ccc(Cl)cc3c2n1 | – | inactive: 7.86%
64 | CCCCNc1cnn(-c2ccccc2)c(=O)c1Cl | inconclusive: 8.2 µM [activator, partial curve] | –
65 | Cc1ccc(C)c(CNC(=O)CCn2cccn2)c1 | inconclusive: 23.1 µM [activator, partial curve] | –
66 | O=[N+]([O-])c1ccc(-c2csc3[n+]2CCS3)cc1 | inconclusive: 20.6 µM [falling, single point] | –
